The record followed here is PubChem BioAssay AID493014 (National Center for Advancing Translational Sciences (NCATS), 2011).

As usually defined, the AC50 is the midpoint of the concentration-response curve, whichever way the signal moves.

The experiment in a line: qHTS Assay to Find Inhibitors of Chronic Active B-Cell Receptor Signaling. The note with it: ABC-DLBCL IkBa-CBG/CBR reporter, luminescence ratio (green luciferase fused to IkBa over red control in TMD8 lymphoma cells), 4 h. In outline: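 TMD8 human ABC-DLBCL cells with doxycycline-inducible IκBα–green luciferase fusion and unfused red luciferase, in 0.5% FBS medium; compounds up to 46 uM, 4 h at 37C. Green/red luminescence ratio, filter-overlap corrected, fitted to concentration-response curves.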
(qHTS replaces the single test concentration by a dilution series.)

[1] abbreviates: measured here: CBR red luminescence, cell number.
Setting [2] is: measured here: IkBa-CBG green luminescence.

Structures are written as SMILES. The list shows a part of the results. Further columns of the screen follow, without active or inactive calls. The list favours compounds with an active or inconclusive main result. Potencies come from curve fits of mixed quality, noted in brackets.

Regarding `COc1ccccc1OCC(=O)NNc1c2ccccc2nc2ccccc12`, the half-maximal activity concentration (AC50) under setting [1] was 22.4 µM [falling, single point].

On to `CCOC(=O)C1=NN(C(=O)c2cccc(Br)c2)C(O)(C(C)(C)C)C1` (configuration not stated), for which the AC50 under setting [1] is 8.91 µM [falling, partial curve].

In the case of `Cc1cccc(NC(=O)c2ccc(C3SCC(=O)N3CCc3ccccc3)cc2)c1` (configuration not stated), the AC50 under setting [1] was 29.1 µM [falling, single point] and the AC50 under setting [2] was 25.9 µM [rising, partial curve, poor fit].

With `CC(C)(C)CNc1cc(N2CCOCC2)ccc1[N+](=O)[O-]`, under setting [1], the AC50 was 28.2 µM [falling, single point].

Take `O=[N+]([O-])c1ccc(Nc2ccc(N3CCOCC3)cc2)c([N+](=O)[O-])c1`: the concentration at half-maximal activity (AC50) under setting [1] was 20 µM [rising, single point].

In the case of `Cc1ccc(NC(=O)CC2S/C(=N/N=C3\CCCc4ccccc43)NC2=O)cc1` (configuration not stated), the AC50 under setting [1] is 29.1 µM [falling, single point].

`C/C=C/c1ccc(OCCCCOc2ccccc2C(C)=O)c(OC)c1`: the concentration at half-maximal activity (AC50) under setting [1] is 29.1 µM [rising, single point].

In the case of `Cc1ccc(S(=O)(=O)N2CCCCC2)cc1NC(=O)C1=NN(c2ccccc2)C(=O)CC1`, the AC50 under setting [1] was 29.1 µM [rising, single point].

For the compound `OCC1(Cc2cccc(Cl)c2)CCCN(Cc2cn[nH]c2C2CCCCC2)C1` (configuration not stated), the AC50 under setting [1] is 35.5 µM [falling, single point].

For the compound `O=C(Nc1nc2c(F)cc(F)cc2s1)C1CC(=O)N(Cc2ccco2)C1` (configuration not stated), under setting [1], the concentration at half-maximal activity (AC50) is 22.4 µM [falling, single point].

In the case of `CCN(Cc1ccccc1)S(=O)(=O)c1ccc(C(=O)Nc2nnc(-c3ccccc3OC)o2)cc1`, under setting [1], the half-maximal activity concentration (AC50) was 4.61 µM [falling, full curve].

Consider `Cc1ccc(NC(=O)c2cc(S(=O)(=O)NCCc3ccc(Cl)cc3)ccc2F)cc1`, for which the AC50 under setting [1] is 7.94 µM [falling, partial curve].

For `Cc1cc2cc(CNS(=O)(=O)N(C)C)ccc2[nH]1`, the half-maximal activity concentration (AC50) under setting [1] is 23.1 µM [rising, single point].

For the compound `C/C=C/C(=O)N1CC2(CC(c3cccc(NC(=O)/C(C)=C/C)c3)=NO2)C[C@H]1C(N)=O` (some centres not stated), under setting [1], the AC50 was 35.5 µM [rising, single point].

Consider `Cc1ccccc1NC(=O)CCCSc1nc2ccccc2s1`, for which the concentration at half-maximal activity (AC50) is 29.1 µM [falling, single point] under setting [1] and 1.46 µM [rising, full curve, poor fit] under setting [2].

Consider `N#CCC(=O)N/N=C/c1cc([N+](=O)[O-])ccc1N1CCCC1`, for which the AC50 under setting [1] was 35.5 µM [rising, single point].

For the compound `CCn1c(SCC(=O)Nc2ccc(C(C)=O)cc2)nc2nc3c(cc2c1=O)CCCC3`, the AC50 under setting [1] is 20.6 µM [rising, partial curve, poor fit].

In the case of `CCOC(=O)Cc1nnc(NC(=O)c2ccccc2OC)s1`, under setting [1], the concentration at half-maximal activity (AC50) was 5.62 µM [rising, single point].

Regarding `O=C(NCCN1CCCC1)C1CCN(S(=O)(=O)N2CCC3(CC2)OCCO3)CC1`, the AC50 under setting [1] is 29.1 µM [rising, single point].

`Cc1onc(C(=O)NN)c1-c1csc(COc2ccc(Cl)cc2)n1`: the half-maximal activity concentration (AC50) under setting [1] is 1.41 µM [rising, partial curve].

On to `CC(=O)Nc1ccc(C(=O)COC(=O)c2cccs2)c(F)c1`, for which the AC50 under setting [1] was 10.3 µM [rising, single point].

On to `COc1ccccc1/C=c1\sc2nc(-c3ccccc3OC)nn2c1=O`, for which the AC50 under setting [1] is 0.794 µM [falling, full curve, poor fit].

Consider `Brc1ccc(-c2csc(-c3c[nH]c4ccccc34)n2)cc1`, for which the AC50 under setting [1] was 0.316 µM [rising, full curve, poor fit].

On to `CCn1c2ccccc2c2cc(NC(=O)C(=O)NCC3CCCO3)ccc21` (configuration not stated), for which, under setting [1], the AC50 was 3.98 µM [rising, single point].

Take `CCNC(=S)/N=C(\N)Nc1nc(C)c2cc(C)ccc2n1`: the AC50 under setting [1] was 14.1 µM [falling, partial curve].

On to `CC1=NN(C(=O)c2ccccc2Br)C(O)(c2cccnc2)C1` (configuration not stated), for which the AC50 under setting [1] was 35.5 µM [falling, single point].

For the compound `COc1ccc(-n2c(=S)[nH]c3cc(C(=O)NCCCN4CCCC4=O)ccc3c2=O)cc1`, the AC50 under setting [1] is 0.501 µM [falling, full curve, poor fit].

`CCN(C(=O)COC(=O)c1cccn1C)C1CCS(=O)(=O)C1` (configuration not stated): the AC50 under setting [1] is 14.1 µM [falling, partial curve, poor fit].

With `Nc1[nH]nc2c1NN(c1ccc(Cl)cc1Cl)N2`, the AC50 under setting [1] was 6.51 µM [rising, single point].

As to `CCOC(=O)c1c(-c2ccccc2)nc2cc(C)ccn12`, the AC50 under setting [1] is 17.8 µM [rising, partial curve, poor fit].

In the case of `NS(=O)(=O)c1ccc2nc(NC(=O)c3ccc(Br)o3)sc2c1`, the AC50 under setting [1] was 8.91 µM [falling, partial curve].

For `On1c2c(c3c4nonc4ccc31)CCCC2`, under setting [2], the AC50 was 23.1 µM [rising, partial curve, poor fit].

As to `COc1ccc(NC(=O)COC(=O)c2ccc(C)c(S(=O)(=O)N3CCCCC3)c2)cc1`, the concentration at half-maximal activity (AC50) under setting [1] was 0.00461 µM [rising, full curve, poor fit].

On to `Cc1ccc(NC(=O)C2OCCc3ccccc32)cc1Cl` (configuration not stated), for which, under setting [1], the AC50 was 0.112 µM [rising, full curve, poor fit].

As to `COc1ccc2nc(N(Cc3cccnc3)C(=O)Cc3ccccc3)sc2c1`, under setting [1], the half-maximal activity concentration (AC50) is 35.5 µM [falling, single point].

As to `O=C(COc1ccccc1Cc1ccccc1)Nc1cccc(S(=O)(=O)N2CCOCC2)c1`, the AC50 under setting [1] is 11.6 µM [falling, partial curve, poor fit].

For the compound `CCOC(=O)N1CCC(NC(=O)c2cnn3c(C(F)(F)F)cc(-c4cccc(OC)c4)nc23)CC1`, the AC50 under setting [1] was 11.2 µM [rising, partial curve, poor fit].

Turning to `COCC(C)NC(=O)/C=C/c1ccc(OC)cc1` (configuration not stated), the half-maximal activity concentration (AC50) under setting [1] was 25.1 µM [falling, single point].

With `O=C(N/N=C/c1cc([N+](=O)[O-])ccc1O)Nc1ccccc1`, the concentration at half-maximal activity (AC50) under setting [1] is 4.47 µM [falling, partial curve, poor fit].

Turning to `COc1ccc(S(=O)(=O)N(C)c2ccc(C(=O)NCc3ccco3)cc2)cc1OC`, the AC50 under setting [1] was 3.55 µM [rising, full curve].
